# Source: patent EP4491190A1, “SMALL PROTEINS FOR USE AS SENOLYTIC AND SENOMORPHIC AGENTS” (Fundación Imdea Alimentación, priority 2023, dated 2025)
# For at least one compound, name, drawing or mass did not settle the structure.
# System: SKMel-103, A549, Huh7, SH-SY5Y cells
# Test: MTT cell viability in different models of cellular senescence and cancer cell lines
# Format: cell-based, human
# Conditions: senescent cancerous cell lines, senescence by doxorubicin, bleomycin or palbociclib
# Description: Cells were plated in 96 well plates at a density of 3×10^3-8×10^3 cells/well (proliferative) or 8×10^3-10×10^3 cells/well (senescent). An MTT assay (Sigma-Aldrich, Merck KGaA, Darmstadt, Germany) was used to measure cell viability after 48-96 h of treatments. Briefly, MTT was diluted in 0.1 M phosphate buffered saline (PBS) and added to cells grown in 96-well plates at a final concentration of 0.5 mg/ml. After incubation for 2-4 hr at 37°C with MTT, the culture medium was removed. The precipitated formazan was solubilized with dimethyl sulfoxide (DMSO). Absorbance was measured at 570 nm using a microplate reader (Victor Nivo; Perkin Elmer, Hamburg, Germany). For these assays, the effects of vehicle or treatments were expressed as the % of change of the non-treated cells.
# Next, it was evaluated the senolytic capacity of Tvs1 in different models of cellular senescence and cancer cell lines. For that purpose, chemotherapy known to induce cellular senescence by genotoxic damage (doxorubicin and bleomycin) or by inhibiting cyclin-dependent kinases (palbociclib) was used. Cellular models of melanoma, lung adenocarcinoma (A549), hepatoma (Huh7) and neuroblastoma (SH-SY5Y) were used. Tvs1G consistently produced a senolytic effect in all the cancerous cell lines tested independently of the stimulus for achieving cellular senescence (Figure 2, Figures 4F, 4G, 4H). […]
smiles,measurement,value
"Cc1nc(Nc2ncc(C(=O)Nc3c(C)cccc3Cl)s2)cc(N2CCN(CCO)CC2)n1 [D, dasatinib]",senolytic effect,failed
